Entries after “also recorded” stand apart in the source; their conditions may differ. For at least one compound, name, drawing or mass did not settle the structure.
Test system: H-RAS^G12V/IκBαM organotypic human tissue
Assay: Organotypic human tissue model of RAS-driven neoplastic invasion
Type: cell-based
Details: drug daily in culture media: UO126 5 μM, SB0203580 2.6 μM, PD98059 18.7 μM, LY294002 5 μM
Description: Retroviral Transduction. […] Alternatively transformation was achieved through combined infection with an LTR-driven retrovirus expressing oncogenic ER:H-RAS and a separate LTR-driven retrovirus expressing cyclin-dependent kinase 4 (CDK4). Polybrene was added to a final concentration of 5 ug/mL to cell media during infection. Infections were performed at 37° C. with low-speed centrifugation for 1 hour. Expression of these viral constructs was verified in vitro. […] As a control for a RAS-IκBα bicistronic virus (IIR), we also infected a separate pool of keratinocytes with a LacZ control virus. For dual ER:H-RAS and CDK4 infected cells, forty-eight hours after infection cultures were daily treated with either […] 40 hydroxytamoxifen or an equal volume of ethanol (vehicle).
Human Tissue Model System. […] Pieces with less hair follicles are preferable. […] Subsequently, the epidermis is peeled off. […] Tissue was grown for five to ten days total. For immunofluorescence analysis, tissue was placed in OCT.
Immunofluorescence and Invasion index. […] Tissue was counterstained with Hoescht to visualize cell nuclei.
Hum Gene Ther 8, 1659-1665 (1997)).

**Q.** How did the neoplastic invasion turn out when O=c1cc(N2CCOCC2)oc2c(-c3ccccc3)cccc12 [LY294002] was run?
**A.** neoplastic invasion proceeded in spite of the presence of this drug; also recorded: did not see effects

From patent US9155774B2, “Scaffold-kinase interaction blockades and uses thereof in treating cancer” (THE BOARD OF TRUSTEES OF THE LELAND STANFORD JUNIOR …, priority 2011, dated 2015)
